Reference: patent US6303613A, “Aminopyrimidine derivatives, processes for their preparation, compositions containing them and their use as pharmaceuticals” (AstraZeneca AB, priority 1997, dated 2001)
Counter-ions that a name gives are not always drawn. Some entries share one result that the patent states for a list of compounds.

Experiments:
[1] = biological target: T1, human form of induced nitric oxide synthase (Homo sapiens, UniProt P35228); assay: Screen 2: activity against the human form of induced nitric oxide synthase, enzyme from induced DLD1 cell lysate; assay type: biochemical; details: read-out: IC50 (concentration of drug substance which gives 50% enzyme inhibition in the assay), DLD1 cell lysate (IFN-γ/IL-1β induced), preincubation 1 hour at 37° C., further 1 hour at 37° C.
T1 construct: Nitric oxide synthase is produced by cells in response to interferon-γ (IFN-γ) and interleukin-1β (IL-1β); host or cells: DLD1 human colon adenocarcinoma cells, induced with IL-1beta and IFN-gamma; Triton X-100 cell lysate

[2] = biological target: T2, nitric oxide synthase (induced, from murine macrophage cell line J774A-1) (Mus musculus, UniProt P29477); assay: Screen 1: nitric oxide synthetase inhibiting activity (conversion of 3H-L-arginine into 3H-L-citrulline), enzyme from induced J774A-1 cell lysate; assay type: biochemical; details: read-out: IC50 (concentration of drug substance which gives 50% enzyme inhibition in the assay), J774A-1 cell lysate (IFNg/LPS induced), 1 hour at room temperature
T2 construct: Nitric oxide synthase is produced by cells in response to interferon-g (IFNg) and lipopolysaccharide (LPS); host or cells: J774A-1 murine macrophages, induced with LPS and IFN-gamma; Triton X-100 cell lysate

CCOC(=O)N1CCC2(CC1)N=C(N)c1cccnc1N2 [Example 12, Ethyl 4'-aminospiro[piperidine-4,2'-[(1'H]-(pyrido[2,3-d]pyrimidine)]-1-carboxylate hydrochloride]
IC50 [1]: < 25 µM
IC50 [2]: < 25 µM
